Source: PubChem BioAssay AID504784 (Drosophila RNAi Screening Center, 2011)
Aim: 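Fly genes whose silencing alters how much lipid cells keep in droplets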 (primary screen). Cell system: Drosophila Kc167 embryonic cells. Knock-down reagent: long dsRNA against Drosophila genes, about 250 ng dsRNA per well. Timing: 4 days. Treatment: cells fed 400 µM oleic acid bound to BSA. Measurement: 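Cells imaged and segmented; ratio of lipid droplet area to nuclear area, log-transformed, then normalised as a B-score over the screen; higher means more stored lipid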. Scale: droplet/nuclear area B-score: higher = more stored lipid (overstorage).
In all, the deposit lists about 17,000 reagents; this is an unselected part of those with a known target gene and a result. 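Each column is one replicate's B-score; the combined score over replicates was not deposited, so single values may mislead.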 The numbers tell different reagents against one gene apart. Names joined by + are all predicted targets of the reagent. Further read-outs or replicates are left out here. Reagent sequences are not shown.

| target | dsRNA no. | droplet/nuclear area B-score, replicate 1 |
| --- | --- | --- |
| LanB2 | 1 | -0.74 |
| Hsc70-2 | 1 | 2.23 |
| Trx2 | 1 | -0.43 |
| Nup98-96 | 1 | 0.092 |
| Nup98-96 | 2 | 0.777 |
| ppk13 | 1 | -0.673 |
| CG11192 | 1 | 1.32 |
| AP-1sigma | 1 | -1.16 |
| Sh3beta | 1 | -0.441 |
| Sh3beta | 2 | -0.267 |
| CG5079 | 1 | 0.0202 |
| CG5079 | 2 | -0.92 |
| CG17329 | 1 | -0.686 |
| ArgRS-m | 1 | 0.671 |
| smog | 1 | -0.607 |
| smog | 2 | -2.03 |
| smog | 3 | 5.05 |
| Ref2 | 1 | -2.12 |
| CG1958 | 1 | 1.51 |
| CG7675 | 1 | -1.66 |
| CG10237 | 1 | 0.651 |
| hdly | 1 | 0.279 |
| Tusp | 1 | -1.29 |
| CG1927 | 1 | 0.386 |
| robo2 | 1 | -1.47 |
| robo2 | 2 | 0.0113 |
| robo2 | 3 | 2.27 |
| robo2 | 4 | -1.64 |
| CG31294 | 1 | -0.63 |
| CG8584 | 1 | -1.08 |
| Mal-B1 | 1 | 3.2 |
| l(3)psg2 | 1 | -0.523 |
| Mco4 | 1 | 1.45 |
| Obp47b + CG7741 | 1 | 0.432 |
| CG14273 | 1 | -1.09 |
| eya | 1 | 1.06 |
| TTLL1B | 1 | -0.537 |
| Hip1 | 1 | 0.0535 |
| dati | 1 | 0.0529 |
| dati | 2 | -1.69 |
| mad2 | 1 | 0.197 |
| CG8929 | 1 | -0.258 |
| CG8929 | 2 | -1.8 |
| eEF2 | 1 | 0.778 |
| Tbc1d22 | 1 | 0.679 |
| Myo95E | 1 | 7.33 |
| Cpsf100 | 1 | 0.614 |
| CG15172 | 1 | 0.0622 |
| CG18132 | 1 | -0.123 |
| CG15293 | 1 | -0.477 |
| CG11608 | 1 | -1.47 |
| CR33318 | 1 | -0.00169 |
| Pde6 | 1 | 0.614 |
| Pde6 | 2 | 0.839 |
| Pde6 | 3 | 0.493 |
| CAH8 | 1 | -1.38 |
| Cds | 1 | -0.456 |
| Femcoat | 1 | 0.874 |
| CG34148 + P5CDh2 | 1 | 0.2 |
| CG13288 | 1 | 0.331 |
| CG31882 | 1 | -0.95 |
| CG31404 | 1 | 0.0402 |
| VhaM9.7-b | 1 | -0.272 |
| CG8170 | 1 | 0.837 |
| CG14624 | 1 | 0.0182 |
| Optix | 1 | 1.07 |
| Optix | 2 | -0.99 |
| Optix | 3 | 4.59 |
| by | 1 | 2.24 |
| CG33981 + fab1 | 1 | 0.847 |
| CG30486 | 1 | -1.44 |
| CG10597 | 1 | -1.13 |
| Srp14 | 1 | -0.00677 |
| CG34165 | 1 | 0.91 |
| Ugt305A1 | 1 | -0.247 |
| CG33331 + CG33332 | 1 | -0.0733 |
| Lsm11 | 1 | 0.491 |
| CG3598 | 1 | 0.255 |
| CG6830 | 1 | -0.308 |
| CG17784 | 1 | -0.543 |
| veil | 1 | -0.965 |
| Ubc4 | 1 | 0.154 |
| CG10208 | 1 | -2.84 |
| rdgA | 1 | -0.462 |
| rdgA | 2 | -0.723 |
| rdgA | 3 | -0.614 |
| CG31515 | 1 | -0.182 |
| CG9503 | 1 | -0.271 |
| CG9503 | 2 | -0.137 |
| TwdlD | 1 | 1.46 |
| CG9166 | 1 | -0.499 |
| SCCRO4 | 1 | -1.8 |
| Aplip1 | 1 | -0.659 |
| Aplip1 | 2 | -0.318 |
| Polr2C | 1 | -1.27 |
| CG9389 | 1 | 0.197 |
| CG6621 | 1 | -0.0189 |
| CG17002 | 1 | 0.955 |
| Fancl | 1 | -0.0473 |
| Yp2 | 1 | -0.0109 |
| topi | 1 | -0.425 |
| TBC1D23 | 1 | 1.8 |
| CycH | 1 | -0.151 |
| CycH | 2 | -0.66 |
| PGRP-SC2 | 1 | 1.09 |

11 successive reagents already listed:
| target | dsRNA no. | droplet/nuclear area B-score, replicate 1 |
| --- | --- | --- |
| CG7675 | 1 | -1.66 |
| CG10237 | 1 | 0.651 |
| hdly | 1 | 0.279 |
| Tusp | 1 | -1.29 |
| CG1927 | 1 | 0.386 |
| robo2 | 1 | -1.47 |
| robo2 | 2 | 0.0113 |
| robo2 | 3 | 2.27 |
| robo2 | 4 | -1.64 |
| CG31294 | 1 | -0.63 |
| CG8584 | 1 | -1.08 |
